Measurements reported in PubChem BioAssay AID1224830 (NIAID, 2016)

- Test: 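Regulators of TLR4 signalling towards TNF-alpha in macrophage-like cells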 (primary screen)
- System: human THP-1 monocytic leukaemia cells, TNF dual-luciferase reporter clone, PMA-differentiated to macrophage-like cells
- Reagent: siRNA pool against human genes, 50 nM
- Timing: LPS for 4 h, given about 3 days after siRNA transfection
- Treatment: bacterial LPS (TLR4 ligand), 10 ng/ml
- Measurement: 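Ratio of firefly to renilla light, scaled to the plate median and expressed as a robust z-score per replicate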
- Direction: TNF reporter robust z-score: higher = stronger TNF reporter response to LPS
- Hit rule: 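a well is active when its z-score exceeds 2.8 or falls below -1.5; control wells carry no call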
In all, the deposit lists about 18,000 reagents; shown is a part drawn at random. Over the whole deposit, about 2,900 (16%) got an active call. 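Calls are made per well; low scores hint the gene aids the LPS response, high scores that it dampens it.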 Unmarked entries are inactive. Repeated entries: four replicate wells of each siRNA pool.

gene symbol	TNF reporter robust z-score
DDC	-0.52
DDC	-0.38
DDC	0.66
DDC	-0.72
SPTY2D1	1.27
SPTY2D1	0.32
SPTY2D1	0.62
SPTY2D1	2.1
BMP15	2.12
BMP15	-0.96
BMP15	1.81
BMP15	-0.84
IL20RA	-0.83
IL20RA	-1
IL20RA	-0.59
IL20RA	-0.44
AGK	1.58
AGK	2.9 (active)
AGK	2.94 (active)
AGK	2.63
KRTAP21-1	0.93
KRTAP21-1	0.33
KRTAP21-1	0.41
KRTAP21-1	-0.2
SDHAF1	-0.62
SDHAF1	-0.64
SDHAF1	-0.55
SDHAF1	-0.11
METTL8	-0.97
METTL8	0.38
METTL8	-0.13
METTL8	0.78
WTIP	1.36
WTIP	0.89
WTIP	1.28
WTIP	0.33
ILDR1	-0.57
ILDR1	1.3
ILDR1	0.19
ILDR1	0.63
ATP2A3	1.09
ATP2A3	0.51
ATP2A3	-0.69
ATP2A3	-0.55
TSHB	-0.43
TSHB	-0.09
TSHB	-0.19
TSHB	0.15
KCND3	-0.19
KCND3	0.79
KCND3	-0.74
KCND3	0.03
MCM10	-2.2 (active)
MCM10	-2.03 (active)
MCM10	-0.39
MCM10	-0.27
CLDN9	1.48
CLDN9	0.62
CLDN9	-0.27
CLDN9	0.36
ADH4	-0.87
ADH4	-0.91
ADH4	-0.83
ADH4	0.01
ACKR4	-0.07
ACKR4	0
ACKR4	-0.35
ACKR4	-0.4
PPP4C	-1.16
PPP4C	-1
PPP4C	-1.4
PPP4C	-0.26

Continued (5 carried over from the part before).
gene symbol	TNF reporter robust z-score
ACKR4	-0.4
PPP4C	-1.16
PPP4C	-1
PPP4C	-1.4
PPP4C	-0.26
MEGF6	-1.5
MEGF6	-1.71 (active)
MEGF6	-1.86 (active)
MEGF6	-1.52 (active)
DNAJC16	-0.14
DNAJC16	0.83
DNAJC16	0.24
DNAJC16	0.46
H4C14	3.6 (active)
H4C14	5.55 (active)
H4C14	0.1
H4C14	0.58
TRIM59	1.34
TRIM59	-0.24
TRIM59	1.44
TRIM59	1.8
PFKP	0.06
PFKP	-0.04
PFKP	-0.08
PFKP	-0.26
UHRF2	-0.07
UHRF2	0.5
UHRF2	-0.88
UHRF2	-0.78
OR6M1	-0.69
OR6M1	0.68
OR6M1	1.58
OR6M1	1.5
ITIH1	-0.47
ITIH1	-0.43
ITIH1	-1.08
ITIH1	-0.53
CTSW	3.65 (active)
CTSW	1.47
CTSW	0.64
CTSW	0.41
MRE11	-0.29
MRE11	0.43
MRE11	-0.66
MRE11	0.33
TIGD6	-1.91 (active)
TIGD6	-1.35
TIGD6	-1.87 (active)
TIGD6	-1.47
ZNF714	-0.55
ZNF714	0.34
ZNF714	-0.62
ZNF714	-0.78
SUMO3	-0.97
SUMO3	-1.2
SUMO3	-0.67
SUMO3	-1.71 (active)
OPN3	2.21
OPN3	1.72
OPN3	0.47
OPN3	1.87
CCNE1	-1.42
CCNE1	-0.31
CCNE1	-0.55
CCNE1	-1.16
CCDC184	-0.26
CCDC184	3.74 (active)
CCDC184	0.94
CCDC184	0.04
BRD4	0.07
BRD4	0.61
BRD4	0.53
BRD4	0.08
